Reference: PubChem BioAssay AID587 (National Center for Advancing Translational Sciences (NCATS), 2007)
About 35 (0.06%) of roughly 59,000 compounds were called active. The shares of active, inactive and inconclusive entries below differ from those in the screen. Rule as the data show it: active = max dye-equivalent concentration above about 10 nM; inconclusive = between about 1.1 nM and that limit; inactive = weaker than that.

Test: qHTS Assay for Spectroscopic Profiling in Texas Red Spectral Region
Conditions: Compound fluorescence, Texas Red channel, 547/618 nm; stronger effect = higher value
Summary of the method: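 Texas Red-region profiling: compounds in 100 mM Tris pH 8.0 were read at 547/618 nm after 15 min at room temperature. Intensities were normalized against a six-point Texas Red standard series to give dye-equivalent concentration.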

Structure (SMILES)	max dye-equivalent concentration
CCN(CC)C(=O)N1CCN(C(=O)c2ccc(C)cn2)CC1	inactive
Cc1cc(N2C(=O)C3C4C=CC(C4)C3C2=O)ccc1Br (stereo not drawn)	inconclusive: 1.1 nM
CCOc1ccc(-c2[nH]nc3c2C(c2cccnc2)C(C#N)=C(N)O3)cc1 (stereo not drawn)	inconclusive: 1.4 nM
O=C(Nc1nnc(CC2=CCCCC2)s1)c1cccs1	inconclusive: 1.1 nM
CC(=O)Nc1ccc(Oc2ccc3nc(C)[nH]c3c2)cc1	inconclusive: 1.2 nM
Cc1ccc(C2NC(=O)c3ccccc3N2)s1 (stereo not drawn)	inconclusive: 1.1 nM
COc1ccc(Nc2ncc3c(n2)CC(c2ccccc2)CC3=O)cc1 (stereo not drawn)	inconclusive: 1.4 nM
COCCSc1nnc(NC(=O)Cc2cccs2)s1	inconclusive: 1.8 nM
COc1ccc(-c2nc(N3CCCC3)[nH]c(=O)c2C#N)cc1	inconclusive: 1.1 nM
Cc1onc(-c2c(F)cccc2Cl)c1C(=O)NCCCN1CCOCC1	inconclusive: 1.2 nM
CCC(C)OC(=O)C1=C(C)NC(=O)CC1c1ccccc1OC (stereo not drawn)	inconclusive: 1.4 nM
CCC1(CC)C(=O)NC(=O)NC1=NCCc1ccc(O)cc1	inconclusive: 1.2 nM
Cc1ccc(CN(C)C(=O)c2ccccc2Oc2ccccc2)o1	inconclusive: 1.8 nM
O=C(CCN1C(=O)C2CC=C(Cl)CC2C1=O)N1CCCCC1 (stereo not drawn)	inactive
CCOC(=O)CSc1nnnn1-c1cccc2ccccc12	inconclusive: 1.1 nM
COc1cccc(-c2nnc(SCC(=O)Nc3ccc4c(c3)OCCO4)n2Cc2ccco2)c1	inconclusive: 1.4 nM
C=CCC(Nc1ccco1)c1ccccc1 (stereo not drawn)	inconclusive: 1.7 nM
CCOC(=O)[C@H](CCc1ccccc1)N[C@@H](C)C(=O)N1[C@H](C(=O)O)C[C@H]2CCC[C@@H]21	inactive
CCOC(=O)C1=C(N)Oc2cc(C)oc(=O)c2C1c1cccnc1 (stereo not drawn)	inconclusive: 1.2 nM
CCSc1ccccc1C(=O)NCc1ccc(S(N)(=O)=O)cc1	inconclusive: 1.1 nM
Cc1csc(N(C)C(=O)CSc2nnc(COc3ccccc3C)o2)n1	inconclusive: 1.6 nM
Cc1ccc(S(=O)(=O)CC(=O)N2CCCC2)cc1	inconclusive: 1.9 nM

Structure (SMILES)	max dye-equivalent concentration
COc1ccccc1N(CCC#N)C(=O)CSc1ccc2c(c1)OCCO2	inconclusive: 2.1 nM
CCC(=O)Oc1ccc(C/C(=N\O)c2ccc(O)cc2O)o1	inconclusive: 2 nM
Cn1c(SCC(=O)c2ccccc2)nnc1C1CC1	inconclusive: 1.6 nM
CC(=O)c1cccc(NC(=O)N2CCCC2C(=O)NCc2ccc(C)cc2)c1 (stereo not drawn)	inconclusive: 1.5 nM
NC(N)=NC(N)=Nc1ccccc1	inconclusive: 1.1 nM
COC(=O)CCN(C(C)=O)c1ccc(N)cc1	inconclusive: 1.5 nM
O=c1c2[nH]c3ccccc3c2ncn1CCN1CCNCC1	inconclusive: 2.1 nM
O=C(O)c1cccc(CN2CCCCC2)c1	inactive
Cc1ccc(NS(=O)(=O)c2cc(C(=O)O)ccc2Cl)c(C)c1	inconclusive: 1.7 nM
COc1ccccc1-c1nc(N2CCOCC2)c2ccccc2n1	inactive
CCOC(=O)c1cnc2ccc(C(=O)OC)cc2c1NCc1ccco1	inconclusive: 1.3 nM
Cc1ccc(NS(=O)(=O)c2ccc(NC(=O)c3ccc(Br)o3)cc2)c(C)c1	inconclusive: 1.2 nM
COC(=O)CSc1ncccc1-c1nc2ccccc2[nH]1	inconclusive: 1.4 nM
CCN1CC=C2C(C#N)=C(N)C(C#N)(C#N)C(c3cc(Cl)ccc3Cl)C2C1 (stereo not drawn)	inactive
O=c1[nH]c2ccccc2n1CCCSc1cnc2ccccc2n1	inconclusive: 1.5 nM
Cc1ccc2cc(C(c3nnnn3CC3CCCO3)N3CCc4ccccc4C3)c(=O)[nH]c2c1 (stereo not drawn)	inconclusive: 1.5 nM
CCCC(=O)Nc1ccc(NC(=O)c2cccs2)cn1	inconclusive: 1.4 nM
N#CC(C(=O)NC1CCCCC1)c1nc2ccccc2nc1N1CCN(c2ccc(F)cc2)CC1 (stereo not drawn)	inactive
COc1ccc(-c2coc3ccc(O[C@@H]4O[C@@H](COC(C)=O)[C@@H](OC(C)=O)[C@@H](OC(C)=O)[C@H]4OC(C)=O)c(OC(C)=O)c3c2=O)cc1	inactive
COc1cccc(N2CCCn3c2nc2c3c(=O)n(CCN3CCOCC3)c(=O)n2C)c1	inconclusive: 2 nM
CCCn1c(O)c(CN2CCCCC2)c(C)c(C#N)c1=O	inconclusive: 1.4 nM
CCOC(=O)c1cc2ccccc2nc1C	inconclusive: 1.6 nM

Structure (SMILES)	max dye-equivalent concentration
Cc1csc(SCC(=O)Nc2nc(-c3ccccc3)cs2)n1	inconclusive: 1.1 nM
CCCOc1ccc2oc(=O)c3c(c2c1)CCCN3C(=O)CN1CCCC(C(=O)OCC)C1 (stereo not drawn)	inconclusive: 1.9 nM
COc1ccc(C2C3=C(N=C4SCC(=O)N42)c2ccccc2CC3)cc1OC (stereo not drawn)	inconclusive: 2 nM
Cc1cc(=O)n2nc(N3CCCC(C(=O)N4CCc5ccccc54)C3)sc2n1 (stereo not drawn)	inconclusive: 1.3 nM
C=CCOc1ccc(CNc2nn[nH]n2)cc1	inconclusive: 1.2 nM
Cc1ccc(-c2csc3n[nH]c(=S)n23)cc1	inconclusive: 1.1 nM
CCn1c(CC(=O)Nc2ccc(C)cc2)nnc1SCC(=O)N1CCN(c2ccccc2)CC1	inconclusive: 1.7 nM
COC(=O)N/C(C)=C1/NC(=O)c2ccccc2C(c2ccccc2)N1 (stereo not drawn)	inconclusive: 1.1 nM
CCOC(=O)c1nnc2ccnn2c1N	inconclusive: 1.5 nM
COc1ccc(C2=CC(c3ccc(Cl)cc3)n3cnnc3N2)cc1OC (stereo not drawn)	inactive
CN(C1CCCCC1)S(=O)(=O)c1ccc(NC(=O)C2CCCCC2C(=O)O)cc1 (stereo not drawn)	inconclusive: 1.2 nM
Cn1c(SCC(=O)Nc2ccc3cn[nH]c3c2)nnc1-c1cnccn1	inconclusive: 1.2 nM
O=C(Cn1c(NCCCO)nc2ccccc21)c1cccc(Br)c1	inconclusive: 1.2 nM
O=C(c1noc2c1CCCC2)N1CCN(Cc2ccccc2)CC1	inconclusive: 1.5 nM
COc1ccc(C)cc1S(=O)(=O)N(CC(=O)O)c1ccccc1	inconclusive: 1.2 nM
O=c1c(-c2cccc(Cl)c2)nc2cncnc2n1Cc1ccccc1	inactive
Cc1cc(N2CCN(S(=O)(=O)c3ccc4c(c3)OCCO4)CC2)n2ncnc2n1	inconclusive: 1.1 nM
Nc1ncnc2nc(SCC(=O)N3CCN(c4ccccc4)CC3)[nH]c12	inconclusive: 1.5 nM
CCOc1cc(C)c(Cl)cc1S(=O)(=O)N(C)C	inconclusive: 2 nM
CCCC(c1nnnn1C(C)(C)CC)N1CCN(C2CCCC2)CC1 (stereo not drawn)	inconclusive: 2 nM
CCOC(=O)CN(C(=O)CNC(=O)c1ccco1)C(C(=O)NC1CCCC1)c1ccccc1OCC (stereo not drawn)	inconclusive: 1.6 nM
COc1ccc(NC(=O)CSc2nnc(C3CC3)n2N)cc1	inconclusive: 1.1 nM

Structure (SMILES)	max dye-equivalent concentration
CCOc1ccc2nc3sc(C(=O)N4CCN(C)CC4)c(N)c3cc2c1	inconclusive: 1.7 nM
CC1CCc2ccccc2N1C(=O)c1cccs1 (stereo not drawn)	inconclusive: 3.9 nM
Cc1nnc(NC(=O)CSc2nnnn2Cc2ccccc2)s1	inconclusive: 1.6 nM
COc1ccc2nc3oc(C(=O)N4CCN(c5cccc(Cl)c5)CC4)cc3cc2c1	inconclusive: 1.1 nM
COc1ccc(S(=O)(=O)N(CC(=O)NCC2CCCO2)c2ccccc2)cc1OC (stereo not drawn)	inconclusive: 1.8 nM
CC(=O)NC(=O)NC1CSCC1OC(C)=O (stereo not drawn)	inconclusive: 1.3 nM
COc1ccc(S(=O)(=O)Nc2ccc(S(=O)(=O)N3CCCCC3)cc2)cc1OC	inconclusive: 1.1 nM
COCCNc1nc2c(c(=O)n(C)c(=O)n2C)n1Cc1cccc(C)c1	inconclusive: 1.1 nM
COc1cc(NC(=O)C(C)Oc2ccccc2)cc(OC)c1 (stereo not drawn)	inconclusive: 1.3 nM
COc1cc(C2c3c(n[nH]c3C)C(=O)N2c2ccc(Br)cc2)ccc1O (stereo not drawn)	inconclusive: 1.1 nM
COCCn1c(=O)c(-c2cccs2)nc2cnc(Oc3ccc(OC)cc3)nc21	inactive
Cc1ccc(S(=O)(=O)N2CCN(S(=O)(=O)N3CCCCC3)CC2)c(C)c1	inconclusive: 1.2 nM
CCN1CCC[C@@H]1CNC(=O)c1c(OC)ccc(I)c1O	inconclusive: 1.1 nM
c1ccc(CNC2=NCCC2)nc1	inconclusive: 1.1 nM
CCOC(=O)C1CCCN(Cc2ccccc2C)C1 (stereo not drawn)	inconclusive: 1.7 nM
COc1ccc(CC(NC(C)=O)C(=O)NC2CCN(C(=O)NCc3ccccc3)CC2)cc1OC (stereo not drawn)	inconclusive: 1.7 nM
O=C1CN(c2ccc(Br)cc2)C(=O)N1CC(=O)N1CCCc2ccccc21	inconclusive: 1.7 nM
O=c1c(O)c(-c2ccc(O)c(O)c2)oc2c(OC[C@H]3O[C@@H](O)[C@@H](O)[C@H](O)[C@@H]3O)c(O)cc(O)c12	inactive
Cc1cc2n(n1)C(c1cn(-c3ccccc3)nc1C)Nc1ccccc1-2 (stereo not drawn)	inconclusive: 1.3 nM
Cc1ccc(C2C(=O)N(C3CCCC3)CC(=O)N2CC2COc3ccccc3O2)cc1 (stereo not drawn)	inconclusive: 1.4 nM
COc1ccc(C(c2nnnn2C2CCCC2)N2CCC(C)CC2)c(OC)c1 (stereo not drawn)	inconclusive: 1.4 nM
C=CCn1c(SCC(=O)Nc2ccccc2C)nnc1-c1ccncc1	inconclusive: 1.8 nM

Some values from the entries so far:
Entry of Cc1nnc(NC(=O)CSc2nnnn2Cc2ccccc2)s1 under max dye-equivalent concentration: inconclusive: 1.6 nM
Entry of COc1ccc(S(=O)(=O)N(CC(=O)NCC2CCCO2)c2ccccc2)cc1OC (stereo not drawn) under max dye-equivalent concentration: inconclusive: 1.8 nM
Entry of Cc1ccc(S(=O)(=O)N2CCN(S(=O)(=O)N3CCCCC3)CC2)c(C)c1 under max dye-equivalent concentration: inconclusive: 1.2 nM
Entry of COc1ccc(S(=O)(=O)Nc2ccc(S(=O)(=O)N3CCCCC3)cc2)cc1OC under max dye-equivalent concentration: inconclusive: 1.1 nM
Entry of CCN1CCC[C@@H]1CNC(=O)c1c(OC)ccc(I)c1O under max dye-equivalent concentration: inconclusive: 1.1 nM
